Test results reported in PubChem BioAssay AID248 (DTP/NCI, 2004).
The list is a part of this screen's results and no random one: it gathers some chemical classes. Not every dose and run of a compound is shown. T/C is the treated group as % of the vehicle group. For survival time, the PubChem record calls one and a half times the control and up active, and a quarter to a half above the control has no call in these data; cut-offs in other NCI protocols can differ. Some entries show no survivor count and are marked so; the dose need not have been tolerated. Schedules are NCI's codes, read here as Q, the interval in days (D) or hours (H), X, the number of doses. Some schedule codes hold Z or #, which are not explained here. Some entries were tested several times; the results are listed from low to high.

Tested on: L1210 leukemia ip in BDF1 mice, survival T/C
Assay: NCI In Vivo Anticancer Drug Screen. Data for tumor model L1210 Leukemia (intraperitoneal) in B6D2F1 (BDF1) mice
Settings: T/C endpoint: mean survival time, higher T/C = longer survival

Question: Which results are given for `NC(Cc1ccccc1N(CCCl)CCCl)C(=O)O` (stereo not given)?
Answer: T/C (dose: 0.01 mg/kg/injection, schedule: Q01DX Z (ip), vehicle: carboxymethylcellulose (CMC)): 185 % of control [survivor count not shown]; T/C (dose: 0.03 mg/kg/injection, schedule: Q01DX Z (ip), vehicle: carboxymethylcellulose (CMC)): 125 % of control [survivor count not shown]; T/C (dose: 0.04 mg/kg/injection, schedule: Q01DX005 (ip), vehicle: saline): 94 % of control [survivor count not shown]; T/C (dose: 0.04 mg/kg/injection, schedule: Q01DX009 (ip), vehicle: saline): 101 % of control [survivor count not shown]; T/C (dose: 0.06 mg/kg/injection, schedule: Q01DX Z (ip), vehicle: carboxymethylcellulose (CMC)): 101 [survivor count not shown] and 128 % of control [survivor count not shown]; T/C (dose: 0.08 mg/kg/injection, schedule: Q01DX005 (ip), vehicle: saline): 116 % of control [survivor count not shown]; T/C (dose: 0.08 mg/kg/injection, schedule: Q01DX009 (ip), vehicle: saline): 110 % of control [survivor count not shown]; T/C (dose: 0.12 mg/kg/injection, schedule: Q01DX Z (ip), vehicle: carboxymethylcellulose (CMC)): 152 % of control [survivor count not shown]; T/C (dose: 0.16 mg/kg/injection, schedule: Q01DX005 (ip), vehicle: saline): 110 % of control [survivor count not shown]; T/C (dose: 0.16 mg/kg/injection, schedule: Q01DX009 (ip), vehicle: saline): 106 % of control [survivor count not shown]; T/C (dose: 0.2 mg/kg/injection, schedule: Q01DX009 (oral), vehicle: saline): 101 % of control [survivor count not shown]; T/C (dose: 0.25 mg/kg/injection, schedule: Q01DX010 (ip), vehicle: saline): 135 % of control [survivor count not shown]; T/C (dose: 0.25 mg/kg/injection, schedule: Q01DX Z (ip), vehicle: carboxymethylcellulose (CMC)): 162 % of control [survivor count not shown]; T/C (dose: 0.25 mg/kg/injection, schedule: Q01DX Z (ip), vehicle: methylcellulose (MC)): 113 % of control [survivor count not shown]; T/C (dose: 0.25 mg/kg/injection, schedule: Q01DX Z (oral), vehicle: carboxymethylcellulose (CMC)): 122 % of control [survivor count not shown]; T/C (dose: 0.3 mg/kg/injection, schedule: Q03HX024 (ip), vehicle: saline): 115 % of control [survivor count not shown]; T/C (dose: 0.3 mg/kg/injection, schedule: Q04DX003 (ip), vehicle: saline): 113 % of control [survivor count not shown]; T/C (dose: 0.32 mg/kg/injection, schedule: Q01DX005 (ip), vehicle: saline): 119 % of control [survivor count not shown]; T/C (dose: 0.32 mg/kg/injection, schedule: Q01DX009 (ip), vehicle: saline): 106 % of control [survivor count not shown]; T/C (dose: 0.38 mg/kg/injection, schedule: Q03DX Z (ip), vehicle: carboxymethylcellulose (CMC)): 128 % of control [survivor count not shown]; T/C (dose: 0.4 mg/kg/injection, schedule: Q01DX009 (oral), vehicle: saline): 121 % of control [survivor count not shown]; T/C (dose: 0.4 mg/kg/injection, schedule: Q01DX009 (sc), vehicle: saline): 101 % of control [survivor count not shown]; T/C (dose: 0.44 mg/kg/injection, schedule: Q01DX001 (ip), vehicle: carboxymethylcellulose (CMC)): 125 % of control [survivor count not shown]; T/C (dose: 0.5 mg/kg/injection, schedule: Q01DX006 (iv), vehicle: carboxymethylcellulose (CMC)): 101 % of control [survivor count not shown]; T/C (dose: 0.5 mg/kg/injection, schedule: Q01DX010 (ip), vehicle: saline): 148 % of control [survivor count not shown]; T/C (dose: 0.5 mg/kg/injection, schedule: Q01DX Z (im), vehicle: carboxymethylcellulose (CMC)): 111 % of control [survivor count not shown]; T/C (dose: 0.5 mg/kg/injection, schedule: Q01DX Z (ip), vehicle: carboxymethylcellulose (CMC)): 156 % of control [survivor count not shown]; T/C (dose: 0.5 mg/kg/injection, schedule: Q01DX Z (ip), vehicle: methylcellulose (MC)): 174 % of control [survivor count not shown]; T/C (dose: 0.5 mg/kg/injection, schedule: Q01DX Z (oral), vehicle: carboxymethylcellulose (CMC)): 175 % of control [survivor count not shown]; T/C (dose: 0.5 mg/kg/injection, schedule: Q01DX Z (sc), vehicle: carboxymethylcellulose (CMC)): 106 % of control [survivor count not shown]; T/C (dose: 0.5 mg/kg/injection, schedule: Q03HX016 (ip), vehicle: saline): 100 % of control [survivor count not shown]; T/C (dose: 0.5 mg/kg/injection, schedule: Q08DX002 (ip), vehicle: saline): 113 % of control [survivor count not shown]; T/C (dose: 0.6 mg/kg/injection, schedule: Q03HX024 (ip), vehicle: saline): 108 % of control [survivor count not shown]; T/C (dose: 0.6 mg/kg/injection, schedule: Q04DX003 (ip), vehicle: saline): 121 % of control [survivor count not shown]; T/C (dose: 0.64 mg/kg/injection, schedule: Q01DX005 (ip), vehicle: saline): 124 % of control [survivor count not shown]; T/C (dose: 0.64 mg/kg/injection, schedule: Q01DX009 (ip), vehicle: saline): 120 % of control [survivor count not shown]; T/C (dose: 0.75 mg/kg/injection, schedule: Q03DX Z (ip), vehicle: carboxymethylcellulose (CMC)): 152 % of control [survivor count not shown]; T/C (dose: 0.8 mg/kg/injection, schedule: Q01DX009 (oral), vehicle: saline): 117 % of control [survivor count not shown]; T/C (dose: 0.8 mg/kg/injection, schedule: Q01DX009 (sc), vehicle: saline): 115 % of control [survivor count not shown]; T/C (dose: 0.88 mg/kg/injection, schedule: Q01DX001 (ip), vehicle: carboxymethylcellulose (CMC)): 106 % of control [survivor count not shown]; T/C (dose: 0.88 mg/kg/injection, schedule: Q07DX Z (ip), vehicle: carboxymethylcellulose (CMC)): 143 % of control [survivor count not shown]; T/C (dose: 1.0 mg/kg/injection, schedule: Q01DX006 (iv), vehicle: carboxymethylcellulose (CMC)): 116 % of control [survivor count not shown]; T/C (dose: 1.0 mg/kg/injection, schedule: Q01DX010 (ip), vehicle: saline): 167 % of control [survivor count not shown]; T/C (dose: 1.0 mg/kg/injection, schedule: Q01DX Z (im), vehicle: carboxymethylcellulose (CMC)): 126 % of control [survivor count not shown]; T/C (dose: 1.0 mg/kg/injection, schedule: Q01DX Z (ip), vehicle: carboxymethylcellulose (CMC)): 191 % of control [survivor count not shown]; T/C (dose: 1.0 mg/kg/injection, schedule: Q01DX Z (ip), vehicle: methylcellulose (MC)): 202 % of control [survivor count not shown]; T/C (dose: 1.0 mg/kg/injection, schedule: Q01DX Z (oral), vehicle: carboxymethylcellulose (CMC)): 181 % of control [survivor count not shown]; T/C (dose: 1.0 mg/kg/injection, schedule: Q01DX Z (sc), vehicle: carboxymethylcellulose (CMC)): 152 % of control [survivor count not shown]; T/C (dose: 1.0 mg/kg/injection, schedule: Q03HX016 (ip), vehicle: saline): 109 % of control [survivor count not shown]; T/C (dose: 1.0 mg/kg/injection, schedule: Q03HX024 (ip), vehicle: saline): 122 % of control [survivor count not shown]; T/C (dose: 1.0 mg/kg/injection, schedule: Q04DX003 (ip), vehicle: saline): 151 % of control [survivor count not shown]; T/C (dose: 1.0 mg/kg/injection, schedule: Q08DX002 (ip), vehicle: saline): 117 % of control [survivor count not shown]; T/C (dose: 1.2 mg/kg/injection, schedule: Q03HX024 (ip), vehicle: saline): 121 % of control [survivor count not shown]; T/C (dose: 1.2 mg/kg/injection, schedule: Q04DX003 (ip), vehicle: saline): 133 % of control [survivor count not shown]; T/C (dose: 1.28 mg/kg/injection, schedule: Q01DX005 (ip), vehicle: saline): 140 % of control [survivor count not shown]; T/C (dose: 1.28 mg/kg/injection, schedule: Q01DX009 (ip), vehicle: saline): 125 % of control [survivor count not shown]; T/C (dose: 1.5 mg/kg/injection, schedule: Q03DX Z (ip), vehicle: carboxymethylcellulose (CMC)): 192 % of control [survivor count not shown]; T/C (dose: 1.6 mg/kg/injection, schedule: Q01DX001 (ip), vehicle: saline): 129 % of control [survivor count not shown]; T/C (dose: 1.6 mg/kg/injection, schedule: Q01DX001 (oral), vehicle: saline): 103 % of control [survivor count not shown]; T/C (dose: 1.6 mg/kg/injection, schedule: Q01DX009 (oral), vehicle: saline): 127 % of control [survivor count not shown]
